Article doi:10.1101/374926v1 (bioRxiv, 2018)

Key:
Format in all cases: cell-based, human
Saos-2 cells = assay: In cellulo FCS diffusion time; settings: FCS in Saos-2 cells
[1] = tested on: Rab5-GFP early endosomes in Saos-2 cells; assay: Confocal colocalization with early endosome marker; settings: 2^SiR 600 nM, 30 min
[2] = tested on: Rab7-GFP late endosomes in Saos-2 cells; assay: Confocal colocalization with late endosome marker; settings: 2^SiR 600 nM, 30 min
[3] = tested on: Lamp1-GFP lysosomes in Saos-2 cells; assay: Confocal colocalization with lysosome marker; settings: 2^SiR 600 nM, 30 min
[4] = CORVET-deficient cells (TGFBRAP1 siRNA)
[5] = HOPS-deficient cells (VPS39 siRNA)
[6] = non-targeting (RISC-Free) siRNA

Row | Substance | Average τdiff in cellulo at 37 °C In cytosol (Saos-2 cells) [ms] | Average τdiff in cellulo at 37 °C In nucleus (Saos-2 cells) [ms] | Pearson r, colocalization with EEs [1, 4] | Pearson r, colocalization with EEs [1, 5] | Pearson r, colocalization with EE marker Rab5-GFP [1, 6] | Pearson r, colocalization with LEs [2, 4] | Pearson r, colocalization with LEs [2, 5] | Pearson r, colocalization with LE marker Rab7-GFP [2, 6] | Pearson r, colocalization with LYs [3, 4] | Pearson r, colocalization with LYs [3, 5] | Pearson r, colocalization with LY marker Lamp1-GFP [3, 6]
1 | Ac-KKKKKKKKK-NH2 [Lys9^UL] | 0.274 ± 0.019 | 0.236 ± 0.015 | – | – | – | – | – | – | – | – | –
2 | K^SiR-WYSCNVCGKAFVLSRHLNRHLRVHRRAT-CONH2 [2^SiR] | – | – | 0.083 ± 0.013 | 0.05 ± 0.01 | 0.05 ± 0.01 | 0.21 ± 0.015 | 0.21 ± 0.016 | 0.25 ± 0.016 | 0.47 ± 0.021 | 0.35 ± 0.026 | 0.57 ± 0.027
